# Percent effect of library compounds

The chains behind the UniProt entries cited, without tags or fusion partners. Residues count along the entry.
UniProt Q4DA54, 1-478: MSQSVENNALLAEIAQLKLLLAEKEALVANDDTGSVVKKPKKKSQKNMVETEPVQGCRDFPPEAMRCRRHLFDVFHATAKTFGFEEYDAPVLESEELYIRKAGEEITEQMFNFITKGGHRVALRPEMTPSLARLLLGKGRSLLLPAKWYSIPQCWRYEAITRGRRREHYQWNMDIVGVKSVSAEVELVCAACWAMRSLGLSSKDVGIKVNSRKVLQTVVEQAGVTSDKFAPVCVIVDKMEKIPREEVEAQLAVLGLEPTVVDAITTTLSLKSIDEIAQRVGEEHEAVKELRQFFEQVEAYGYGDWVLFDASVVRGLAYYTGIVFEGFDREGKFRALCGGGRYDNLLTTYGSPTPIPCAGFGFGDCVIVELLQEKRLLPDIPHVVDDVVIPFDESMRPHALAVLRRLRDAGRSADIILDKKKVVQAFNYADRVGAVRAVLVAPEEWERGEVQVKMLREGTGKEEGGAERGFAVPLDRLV

From ChEMBL document CHEMBL3988442, “University of Dundee, Small-Polar-MMV Screening Library” (2021).

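Enzyme assay of histidyl-tRNA synthetase; the read-out is not stated. Target: Histidine-tRNA ligase, Trypanosoma cruzi CL Brener (UniProt Q4DA54). Compounds at 30 µM. Direction is inferred from retests: higher values go with stronger inhibition. Size under these conditions: about 69,000 compounds, about 31 of them at 50% or above in at least one test.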

Values are the deposited “Percent Effect”, in %. The controls that fix the scale are not given in the record; negative values are as filed. The compounds are a random part of those screened.

compound,percent effect
Cc1noc(C)c1CN1CC[C@@H]2O[C@H](COCC3CC3)CC[C@@H]21,7.463%
Cc1oc(C(=O)O)cc1S(=O)(=O)Nc1cc(Cl)ccc1F,3.053%
Cc1nc([C@@H]2C[C@@H]3CCN(C(=O)c4ccnnc4)C[C@H]3O2)sc1C,3.261%
CCN(CC)C1CCN(C(=O)c2cc3cc(C)cc(C)c3nc2C)CC1,3.448%
CCc1nc(CN2CCOC(Cn3nc(C)cc3C)C2)no1 (centres undefined),4.274%
CC(C)[C@@H]1CN(S(=O)(=O)Cc2ccccc2)C[C@H]1C(=O)O,5.82%
CC(C)=CCCC1(C)C=Cc2c(cc(C)n(CCC(=O)O)c2=O)O1 (centres undefined),5.747%
CCCc1nc(CNc2cccc(C(=O)N3CCCC(O)C3)c2)no1 (centres undefined),3.279%
CN(C)c1ccc(C(=O)N2CCN(Cc3cscn3)CC2)cn1,4.274%
CC(C)(C)OC(=O)N1CCN(S(C)(=O)=O)C2(CCCCC2)C1,5.941%
Cc1cc(C)c(S(=O)(=O)Nc2cccc3c2OCCO3)cc1C(=O)O,-3.067%
CN(Cc1cc(Cl)c2c(c1)OCO2)Cc1cscn1,4.762%
Cc1nc(CN2CCO[C@H]3CN(C(=O)Cc4cccs4)C[C@H]32)cs1,6.557%
O=C(Cc1cccs1)N1C[C@@H]2COC[C@]2(COCc2cccnc2)C1,8.602%
CN1CCC(CNC(=O)c2ccc(O)nc2)c2ccccc21 (centres undefined),-0.5236%
Cc1n[nH]cc1CNCC1(c2ccc3c(c2)OCO3)CCOCC1,8.021%
Cc1ccc(CN2Cc3nnn(C)c3C(COCc3ccccn3)C2)s1 (centres undefined),7.477%
CN(C)CCN1CCCC12CCN(C(=O)c1cnccn1)CC2,2.256%
COC(=O)NCC(=O)NCC1(c2c(F)cccc2F)CCCC1,-1.093%
Cc1nc(CNC2CCN(Cc3ccccc3)C2)sc1C (centres undefined),24.14%
O=C(O)c1cccc(CC2CCN(c3ncc(F)cn3)CC2)c1,3.261%
CS(=O)(=O)N1CCC(CNc2cc(Cl)ccc2C#N)CC1,4.02%
CSCC(=O)N1CCCC1c1noc(C2CC2)n1 (centres undefined),-0.4149%
N#Cc1ccc(CNC(=O)NC2CCN(c3ncccn3)CC2)cc1,10.47%
Cc1cc(NCc2csc(-c3ccsc3)n2)no1,3.333%
Cc1cccc(S(=O)(=O)NC(=O)CN(C)Cc2ccccc2)c1,3.448%
CC(C)(CO)NCc1ccc(OCc2ccc3c(c2)OCCO3)cc1,2.484%
COCCCN1C(=O)CC[C@H]2CN(Cc3cc4ccccc4o3)CC[C@H]21,4.545%
CCOCCN1CCN(CC(O)c2ccc(F)cc2)CC1 (centres undefined),3.017%
c1nc(N2CCCCC2Cn2cncn2)c2ccsc2n1 (centres undefined),0.4149%
Cc1cc(NC(=O)c2nc(N3CCCC3)ncc2Cl)ccc1Br,-2.174%
N#Cc1c(Cl)nsc1N1CCN(CC2CCCCC2)CC1,4.39%
N#CCSCCCN1CCN(C(=O)C2CCCC2)CC1,0.578%
O=C(NCc1cccnc1)c1nc2c(s1)CCCN2c1ncccn1,2.488%
Fc1ccc(CN2CCO[C@H]3[C@H](OCC4CC4)CC[C@@H]32)cc1,5.946%
CCCc1cc(C(=O)N2CC(c3ccncc3)C2)ccn1,0%
CCc1ccc(C(=O)N2CCC(N(C)C(=O)OC(C)(C)C)C2)o1 (centres undefined),0.5587%
Cc1nc(C)n(CC2CCCN(Cc3cccc4c3OCCO4)C2)n1 (centres undefined),3.468%
CC(C)c1nc(C2CCCN2C(=O)c2nccnc2N)no1 (centres undefined),-0.3831%
COc1ccc(CNc2nnc(CC(C)(C)C)o2)cc1C#N,14.94%
O=C(NCCN1CCOCC1)c1cnc(Cc2ccc(F)cc2)s1,6.667%
CNC(=O)N1CCC2(CC1)C(=O)N(C)c1c(F)cccc12,5.376%
Cc1cnn(C2CN(CCCOc3ccc(C#N)cc3)C2)c1,1.786%
CCC(C)(NCC(=O)NC(C)C)c1nc(C)cs1 (centres undefined),3.488%
COc1cccc2c1OCC(CNC(=O)CNC(N)=O)C2 (centres undefined),1.695%
CCOCC1CN(C(=O)c2cnoc2C)Cc2cnn(C)c21 (centres undefined),7.619%
CN(C)S(=O)(=O)N1CCCC(c2nccnc2-c2cccc(Cl)c2)C1 (centres undefined),-1.695%
CCc1cnc(CN(C(C)=O)C2CCN(CCc3ccccn3)C2)o1 (centres undefined),8.671%
O=C1N(CC2CC2)C2(CCSCC2)NC12CCCC2,9.677%
CS(=O)(=O)N1CCCC12CCCN(c1nccs1)C2 (centres undefined),4.301%
OCCNc1nccc(-c2c[nH]nc2-c2cccnc2)n1,6.78%
NS(=O)(=O)c1cnn(CCC(=O)N(Cc2ccccc2)C2CC2)c1,2.762%
O=S(=O)(NC1=NCN(CCc2cccs2)CN1)c1ccc(F)cc1,-4.918%
CC(C)NC(=O)N[C@H]1C[C@@H](c2nc(-c3ccc(F)cc3)no2)N(C)C1,6.522%
O=C(NCc1ccccn1)[C@@H]1COC[C@H]2CN(C3CCOCC3)C[C@H]21,-0.5525%
Cn1cc(N2CCC3(CCN(S(=O)(=O)C4CC4)C3)C2=O)cn1 (centres undefined),5.946%
CC/N=c1\nc(NCC)nc2n1C(O)(Nc1ccc(C)cc1C)CS2 (centres undefined),11%
CCc1nc(CC(=O)N2CCC(C(=O)N3CCCCC3)CC2)cs1,0%
CCn1ncc(CN2C[C@@H]3CCCN3C[C@H]2CCSC)c1C,7.491%
Clc1snnc1CN1CCCC1Cn1cccn1 (centres undefined),5.714%
CCC(NC(=O)c1cccc2[nH]ccc12)C(=O)N1CCOCC1 (centres undefined),3.922%
CC(C)CCNC(=O)c1ccc(-n2cnc3ccccc3c2=O)cc1,7.317%
CC(C)NC(=O)[C@H]1C[C@@H]2[C@@H](C1)OCCN2Cc1cccnc1,3.784%
Cc1occc1C(=O)N1CCC2(CCC(=O)N(CC(N)=O)C2)CC1,5.691%
Cc1nc(C)n(CC2CN(CCOCC(F)(F)F)CCO2)n1 (centres undefined),0.3774%
Cc1ccc(C(CNC(=O)Nc2cn[nH]c2)N2CCOCC2)o1 (centres undefined),7.289%
CCN(Cc1cc(Cl)ccc1OC)Cc1ncnn1CC,6.404%
COc1cccc(-c2cnc3n2CCC32CCN(S(C)(=O)=O)CC2)c1,7.362%
CCC(CO)N(Cc1ccco1)Cc1c(C)nn(C)c1Cl (centres undefined),8.081%
O=C1NCCN1CCNc1cc(-c2ccncc2)nc2ccnn12,0.5525%
CCn1nc(C)c(CCNC(=O)C2CCCN(C(=O)COC)C2)c1C (centres undefined),2.242%
Cc1ncc(C(=O)N2CCCC2(C)C(=O)N2CCOCC2)c(C)n1 (centres undefined),6.977%
CC(=O)N1CCCN(C(=O)NCc2ccccn2)CC1,0.7576%
Cc1ncc2c(n1)CN(CC(O)COc1ccc(C#N)cc1)CC2 (centres undefined),16.16%
CC(C)OCc1ccccc1CNC(=O)C(C)(C)C,3.03%
O=c1nc(CNc2ccccc2)[nH]n1Cc1ccccc1,0%
Cn1cccc1C(O)CNC(=O)COc1ccccc1F (centres undefined),1.031%

Some entries from above, unchanged:

compound	percent effect
CC(C)[C@@H]1CN(S(=O)(=O)Cc2ccccc2)C[C@H]1C(=O)O	5.82%
O=C(NCCN1CCOCC1)c1cnc(Cc2ccc(F)cc2)s1	6.667%
O=S(=O)(NC1=NCN(CCc2cccs2)CN1)c1ccc(F)cc1	-4.918%
CCN(CC)C1CCN(C(=O)c2cc3cc(C)cc(C)c3nc2C)CC1	3.448%
Fc1ccc(CN2CCO[C@H]3[C@H](OCC4CC4)CC[C@@H]32)cc1	5.946%
Cc1cc(NCc2csc(-c3ccsc3)n2)no1	3.333%